B1: Q14165 (protein, UniProt Q14165 1-292, looked up)
chain: MLGAWAVEGTAVALLRLLLLLLPPAIRGPGLGVAGVAGAAGAGLPESVIWAVNAGGEAHVDVHGIHFRKDPLEGRVGRASDYGMKLPILRSNPEDQILYQTERYNEETFGYEVPIKEEGDYVLVLKFAEVYFAQSQQKVFDVRLNGHVVVKDLDIFDRVGHSTAHDEIIPMSIRKGKLSVQGEVSTFTGKLYIEFVKGYYDNPKVCALYIMAGTVDDVPKLQPHPGLEKKEEEEEEEEYDEGSNLKKQTNKNRVQSGPRTPNPYASDNSSLMFPILVAFGVFIPTLFCLCRL
modifications: full-length
B2: Q96I99 (protein, UniProt Q96I99 1-432, looked up)
chain: MASPVAAQAGKLLRALALRPRFLAAGSQAVQLTSRRWLNLQEYQSKKLMSDNGVRVQRFFVADTANEALEAAKRLNAKEIVLKAQILAGGRGKGVFNSGLKGGVHLTKDPNVVGQLAKQMIGYNLATKQTPKEGVKVNKVMVAEALDISRETYLAILMDRSCNGPVLVGSPQGGVDIEEVAASNPELIFKEQIDIFEGIKDSQAQRMAENLGFVGPLKSQAADQITKLYNLFLKIDATQVEVNPFGETPEGQVVCFDAKINFDDNAEFRQKDIFAMDDKSENEPIENEAAKYDLKYIGLDGNIACFVNGAGLAMATCDIIFLNGGKPANFLDLGGGVKEAQVYQAFKLLTADPKVEAILVNIFGGIVNCAIIANGITKACRELELKVPLVVRLEGTNVQEAQKILNNSGLPITSAIDLEDAAKKAVASVAKK
modifications: full-length
B3: P04181 (protein, UniProt P04181 1-439, looked up)
chain: MFSKLAHLQRFAVLSRGVHSSVASATSVATKKTVQGPPTSDDIFEREYKYGAHNYHPLPVALERGKGIYLWDVEGRKYFDFLSSYSAVNQGHCHPKIVNALKSQVDKLTLTSRAFYNNVLGEYEEYITKLFNYHKVLPMNTGVEAGETACKLARKWGYTVKGIQKYKAKIVFAAGNFWGRTLSAISSSTDPTSYDGFGPFMPGFDIIPYNDLPALERALQDPNVAAFMVEPIQGEAGVVVPDPGYLMGVRELCTRHQVLFIADEIQTGLARTGRWLAVDYENVRPDIVLLGKALSGGLYPVSAVLCDDDIMLTIKPGEHGSTYGGNPLGCRVAIAALEVLEEENLAENADKLGIILRNELMKLPSDVVTAVRGKGLLNAIVIKETKDWDAWKVCLRLRDNGLLAKPTHGDIIRFAPPLVIKEDELRESIEIINKTILSF
modifications: full-length
B4: Q9H845 (protein, UniProt Q9H845 1-621, looked up)
chain: MSGCGLFLRTTAAARACRGLVVSTANRRLLRTSPPVRAFAKELFLGKIKKKEVFPFPEVSQDELNEINQFLGPVEKFFTEEVDSRKIDQEGKIPDETLEKLKSLGLFGLQVPEEYGGLGFSNTMYSRLGEIISMDGSITVTLAAHQAIGLKGIILAGTEEQKAKYLPKLASGEHIAAFCLTEPASGSDAASIRSRATLSEDKKHYILNGSKVWITNGGLANIFTVFAKTEVVDSDGSVKDKITAFIVERDFGGVTNGKPEDKLGIRGSNTCEVHFENTKIPVENILGEVGDGFKVAMNILNSGRFSMGSVVAGLLKRLIEMTAEYACTRKQFNKRLSEFGLIQEKFALMAQKAYVMESMTYLTAGMLDQPGFPDCSIEAAMVKVFSSEAAWQCVSEALQILGGLGYTRDYPYERILRDTRILLIFEGTNEILRMYIALTGLQHAGRILTTRIHELKQAKVSTVMDTVGRRLRDSLGRTVDLGLTGNHGVVHPSLADSANKFEENTYCFGRTVETLLLRFGKTIMEEQLVLKRVANILINLYGMTAVLSRASRSIRIGLRNHDHEVLLANTFCVEAYLQNLFSLSQLDKYAPENLDEQIKKVSQQILEKRAYICAHPLDRTC
modifications: full-length
B5: Q92520 (protein, UniProt Q92520 1-227, looked up)
chain: MRVAGAAKLVVAVAVFLLTFYVISQVFEIKMDASLGNLFARSALDTAARSTKPPRYKCGISKACPEKHFAFKMASGAANVVGPKICLEDNVLMSGVKNNVGRGINVALANGKTGEVLDTKYFDMWGGDVAPFIEFLKAIQDGTIVLMGTYDDGATKLNDEARRLIADLGSTSITNLGFRDNWVFCGGKGIKTKSPFEQHIKNNKDTNKYEGWPEVVEMEGCIPQKQD
modifications: full-length
B6: Q92896 (protein, UniProt Q92896 1-1179, looked up)
chain: MAACGRVRRMFRLSAALHLLLLFAAGAEKLPGQGVHSQGQGPGANFVSFVGQAGGGGPAGQQLPQLPQSSQLQQQQQQQQQQQQPQPPQPPFPAGGPPARRGGAGAGGGWKLAEEESCREDVTRVCPKHTWSNNLAVLECLQDVREPENEISSDCNHLLWNYKLNLTTDPKFESVAREVCKSTITEIKECADEPVGKGYMVSCLVDHRGNITEYQCHQYITKMTAIIFSDYRLICGFMDDCKNDINILKCGSIRLGEKDAHSQGEVVSCLEKGLVKEAEEREPKIQVSELCKKAILRVAELSSDDFHLDRHLYFACRDDRERFCENTQAGEGRVYKCLFNHKFEESMSEKCREALTTRQKLIAQDYKVSYSLAKSCKSDLKKYRCNVENLPRSREARLSYLLMCLESAVHRGRQVSSECQGEMLDYRRMLMEDFSLSPEIILSCRGEIEHHCSGLHRKGRTLHCLMKVVRGEKGNLGMNCQQALQTLIQETDPGADYRIDRALNEACESVIQTACKHIRSGDPMILSCLMEHLYTEKMVEDCEHRLLELQYFISRDWKLDPVLYRKCQGDASRLCHTHGWNETSEFMPQGAVFSCLYRHAYRTEEQGRRLSRECRAEVQRILHQRAMDVKLDPALQDKCLIDLGKWCSEKTETGQELECLQDHLDDLVVECRDIVGNLTELESEDIQIEALLMRACEPIIQNFCHDVADNQIDSGDLMECLIQNKHQKDMNEKCAIGVTHFQLVQMKDFRFSYKFKMACKEDVLKLCPNIKKKVDVVICLSTTVRNDTLQEAKEHRVSLKCRRQLRVEELEMTEDIRLEPDLYEACKSDIKNFCSAVQYGNAQIIECLKENKKQLSTRCHQKVFKLQETEMMDPELDYTLMRVCKQMIKRFCPEADSKTMLQCLKQNKNSELMDPKCKQMITKRQITQNTDYRLNPMLRKACKADIPKFCHGILTKAKDDSELEGQVISCLKLRYADQRLSSDCEDQIRIIIQESALDYRLDPQLQLHCSDEISSLCAEEAAAQEQTGQVEECLKVNLLKIKTELCKKEVLNMLKESKADIFVDPVLHTACALDIKHHCAAITPGRGRQMSCLMEALEDKRVRLQPECKKRLNDRIEMWSYAAKVAPADGFSDLAMQVMTSPSKNYILSVISGSICILFLIGLMCGRITKRVTRELKDR
modifications: full-length
B7: Q6PIU2 (protein, UniProt Q6PIU2 1-408, looked up)
chain: MRSSCVLLTALVALAAYYVYIPLPGSVSDPWKLMLLDATFRGAQQVSNLIHYLGLSHHLLALNFIIVSFGKKSAWSSAQVKVTDTDFDGVEVRVFEGPPKPEEPLKRSVVYIHGGGWALASAKIRYYDELCTAMAEELNAVIVSIEYRLVPKVYFPEQIHDVVRATKYFLKPEVLQKYMVDPGRICISGDSAGGNLAAALGQQFTQDASLKNKLKLQALIYPVLQALDFNTPSYQQNVNTPILPRYVMVKYWVDYFKGNYDFVQAMIVNNHTSLDVEEAAAVRARLNWTSLLPASFTKNYKPVVQTTGNARIVQELPQLLDARSAPLIADQAVLQLLPKTYILTCEHDVLRDDGIMYAKRLESAGVEVTLDHFEDGFHGCMIFTSWPTNFSVGIRTRNSYIKWLDQNL
modifications: full-length

Test: Proteomics analysis (trypsin digest, LC-MS/MS) of hMSC ghosts and derived CDLs, conditioned or unconditioned by PC3 medium
Set-up: species or system human
Conditions: LC-MS/MS peak area per protein; for Ratio of expression Cond. CDLs/Cond. Ghosts: CDLs derived from conditioned hMSCs versus conditioned ghosts; for Ratio of expression Cond Ghosts/Ghosts: hMSC ghosts conditioned by PC3 medium versus unconditioned ghosts

Row | Molecule | Ratio of expression Cond. CDLs/Cond. Ghosts [%] | Ratio of expression Cond Ghosts/Ghosts [%]
1 | B1 | 3 | 100
2 | B2 | 3 | 100
3 | B3 | 3 | 100
4 | B4 | 7 | 209
5 | B5 | 3 | 100
6 | B6 | 3 | 100
7 | B7 | 3 | 100

Source: patent US11065203B2, “Liposomal compositions and uses of same” (Technion Research & Development Foundation Limited, priority 2009, dated 2021)
